Assay [1] deals with T1, T7-DHX34 wild-type (human) (UniProt Q14147).
T1 sequence: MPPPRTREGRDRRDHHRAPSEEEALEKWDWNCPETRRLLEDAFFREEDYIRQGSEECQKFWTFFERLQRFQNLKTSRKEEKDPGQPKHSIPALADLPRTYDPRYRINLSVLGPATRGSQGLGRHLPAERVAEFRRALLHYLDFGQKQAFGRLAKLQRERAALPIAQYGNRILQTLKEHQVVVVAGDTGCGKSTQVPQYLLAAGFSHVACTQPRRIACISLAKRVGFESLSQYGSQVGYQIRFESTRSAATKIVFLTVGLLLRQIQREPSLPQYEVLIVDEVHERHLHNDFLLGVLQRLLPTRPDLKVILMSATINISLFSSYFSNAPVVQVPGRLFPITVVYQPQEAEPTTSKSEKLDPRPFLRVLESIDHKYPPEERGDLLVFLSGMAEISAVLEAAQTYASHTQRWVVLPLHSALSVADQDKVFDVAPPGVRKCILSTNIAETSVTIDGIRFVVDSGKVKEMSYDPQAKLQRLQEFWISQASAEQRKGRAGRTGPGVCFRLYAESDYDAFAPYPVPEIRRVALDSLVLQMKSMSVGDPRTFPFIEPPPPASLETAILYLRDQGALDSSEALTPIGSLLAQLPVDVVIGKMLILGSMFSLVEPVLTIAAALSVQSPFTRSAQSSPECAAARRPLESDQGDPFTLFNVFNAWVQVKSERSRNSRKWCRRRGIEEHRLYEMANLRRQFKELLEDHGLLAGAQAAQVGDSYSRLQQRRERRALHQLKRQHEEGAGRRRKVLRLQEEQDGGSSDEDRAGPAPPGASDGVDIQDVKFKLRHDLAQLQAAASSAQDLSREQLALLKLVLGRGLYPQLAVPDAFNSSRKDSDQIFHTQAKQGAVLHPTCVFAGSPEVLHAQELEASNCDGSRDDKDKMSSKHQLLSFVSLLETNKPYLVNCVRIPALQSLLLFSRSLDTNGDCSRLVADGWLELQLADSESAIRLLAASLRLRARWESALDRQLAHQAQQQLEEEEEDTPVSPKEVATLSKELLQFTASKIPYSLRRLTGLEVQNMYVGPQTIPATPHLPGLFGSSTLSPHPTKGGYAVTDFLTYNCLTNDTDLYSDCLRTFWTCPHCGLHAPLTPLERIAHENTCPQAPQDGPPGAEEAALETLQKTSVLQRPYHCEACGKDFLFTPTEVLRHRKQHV
In words: co-IP; HEK293T cells co-transfected with T7-DHX34 (wild type or variant) and FLAG-UPF1; anti-T7 immunoprecipitates probed for UPF1.

The target in assay [2] is T2, T7-DHX34 p.Tyr515Cys (human) (UniProt Q14147).
T2 sequence: T1 sequence with Y515C
The assay is described as above.

Numbering of substitutions follows the chain as printed. These are yes or no findings as the source states them, for the method shown. Binding seen in cells or lysates may run through a third protein. Some entries that bind do so weakly or less than the wild type. Sequences can lack the tags named with a protein.

B1: FLAG-UPF1 (pcIneo-FLAG-UPF1) (protein, UniProt Q92900 1-1129)
chain: MSVEAYGPSSQTLTFLDTEEAELLGADTQGSEFEFTDFTLPSQTQTPPGGPGGPGGGGAGGPGGAGAGAAAGQLDAQVGPEGILQNGAVDDSVAKTSQLLAELNFEEDEEDTYYTKDLPIHACSYCGIHDPACVVYCNTSKKWFCNGRGNTSGSHIVNHLVRAKCKEVTLHKDGPLGETVLECYNCGCRNVFLLGFIPAKADSVVVLLCRQPCASQSSLKDINWDSSQWQPLIQDRCFLSWLVKIPSEQEQLRARQITAQQINKLEELWKENPSATLEDLEKPGVDEEPQHVLLRYEDAYQYQNIFGPLVKLEADYDKKLKESQTQDNITVRWDLGLNKKRIAYFTLPKTDSGNEDLVIIWLRDMRLMQGDEICLRYKGDLAPLWKGIGHVIKVPDNYGDEIAIELRSSVGAPVEVTHNFQVDFVWKSTSFDRMQSALKTFAVDETSVSGYIYHKLLGHEVEDVIIKCQLPKRFTAQGLPDLNHSQVYAVKTVLQRPLSLIQGPPGTGKTVTSATIVYHLARQGNGPVLVCAPSNIAVDQLTEKIHQTGLKVVRLCAKSREAIDSPVSFLALHNQIRNMDSMPELQKLQQLKDETGELSSADEKRYRALKRTAERELLMNADVICCTCVGAGDPRLAKMQFRSILIDESTQATEPECMVPVVLGAKQLILVGDHCQLGPVVMCKKAAKAGLSQSLFERLVVLGIRPIRLQVQYRMHPALSAFPSNIFYEGSLQNGVTAADRVKKGFDFQWPQPDKPMFFYVTQGQEEIASSGTSYLNRTEAANVEKITTKLLKAGAKPDQIGIITPYEGQRSYLVQYMQFSGSLHTKLYQEVEIASVDAFQGREKDFIILSCVRANEHQGIGFLNDPRRLNVALTRARYGVIIVGNPKALSKQPLWNHLLNYYKEQKVLVEGPLNNLRESLMQFSKPRKLVNTINPGARFMTTAMYDAREAIIPGSVYDRSSQGRPSSMYFQTHDQIGMISAGPSHVAAMNIPIPFNLVMPPMPPPGYFGQANGPAAGRGTPKGKTGRGGRQKNRFGLPGPSQTNLPNSQASQDVASQPFSQGALTQGYISMSQPSQMSQPGLSQPELSQDSYLGDEFKSQIDVALSQDSTYQGERAYQHGGVTGLSQY
As to B1, the binding result in assay [1] and in assay [2] was “binds” each time.
